Laboratory results as given in the supplement of paper PMC3334620.
In all, about 33,000 sequences were measured (“E-score (-0.5 to 0.5)”: median about -0.016, highest 2% from about 0.3 on). The list shows a part of the results.

The sequences below were run against T1, Yer184c (UniProt P39961) (assay: PBM E-score (8-mer binding enrichment) (E-score (-0.5 to 0.5)); higher = stronger / more preferred TF binding). Conditions: protein concentration: 100 nM; construct: GST-full length.
T1 sequence: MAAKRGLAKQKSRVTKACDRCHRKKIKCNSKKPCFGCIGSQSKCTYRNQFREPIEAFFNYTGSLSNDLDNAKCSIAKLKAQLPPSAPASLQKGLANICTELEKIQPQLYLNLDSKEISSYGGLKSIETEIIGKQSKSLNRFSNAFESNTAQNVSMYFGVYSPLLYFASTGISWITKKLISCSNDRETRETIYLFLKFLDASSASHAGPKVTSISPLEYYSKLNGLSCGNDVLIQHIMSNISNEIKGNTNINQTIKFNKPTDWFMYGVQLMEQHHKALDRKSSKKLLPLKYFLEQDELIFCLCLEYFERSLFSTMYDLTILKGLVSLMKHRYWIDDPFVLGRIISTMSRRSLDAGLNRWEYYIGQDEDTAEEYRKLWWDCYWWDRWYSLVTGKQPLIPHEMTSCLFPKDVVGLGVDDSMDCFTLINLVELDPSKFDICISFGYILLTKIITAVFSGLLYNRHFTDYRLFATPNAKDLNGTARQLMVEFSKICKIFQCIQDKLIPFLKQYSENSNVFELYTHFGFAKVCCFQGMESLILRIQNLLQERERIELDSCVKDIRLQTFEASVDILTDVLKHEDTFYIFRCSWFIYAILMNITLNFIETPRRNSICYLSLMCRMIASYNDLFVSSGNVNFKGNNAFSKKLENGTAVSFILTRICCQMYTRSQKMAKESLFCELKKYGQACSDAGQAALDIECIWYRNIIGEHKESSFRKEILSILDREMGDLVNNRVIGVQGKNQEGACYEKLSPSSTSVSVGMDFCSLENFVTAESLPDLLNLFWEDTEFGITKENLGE
Summary of the method: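 Universal all-10-mer Agilent arrays, fresh or stripped once, were converted to double-stranded form by primer extension. GST-tagged yeast transcription factors from PURExpress in vitro transcription/translation, full-length or DNA-binding domain only, were applied at about 100-200 nM and detected with fluorescent anti-GST. After masliner normalisation, the Universal PBM Analysis Suite scored each ungapped eight-base word together with its reverse complement by E-score.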

Row | Sequence | PBM E-score
1 | CTCAAGAG | -0.335
2 | AGCTCTAA | -0.0792
3 | AGCATGCA | -0.256
4 | CACTAATA | 0.136
5 | AGACACCT | -0.173
6 | CCTTACCG | 0.114
7 | ATATTGTA | 0.134
8 | ATGTAGAC | -0.111
9 | ATAGTTAG | 0.131
10 | TAGGATGA | -0.0545
11 | GTATTGTA | 0.129
12 | CAATGATC | 0.0401
13 | ATTGGACA | 0.179
14 | ATAGTACG | 0.0144
15 | AAGCCAAG | -0.0123
16 | CATCGATG | 0.0168
17 | CACACGGA | 0.0751
18 | CTGCGACA | 0.0292
19 | GGGCTACC | -0.178
20 | CCACTACC | -0.172
21 | GGAGCGCC | -0.217
22 | CCTCCGAC | -0.179

From no. 4 to 8, copied from above:
Row | Sequence | PBM E-score
4 | CACTAATA | 0.136
5 | AGACACCT | -0.173
6 | CCTTACCG | 0.114
7 | ATATTGTA | 0.134
8 | ATGTAGAC | -0.111

Single entries from the results shown:
In PBM E-score, CACACGGA reads 0.0751
In PBM E-score, ATAGTACG reads 0.0144

Going on with the list:

Row | Sequence | PBM E-score
23 | CCCGAGCC | 0.155
24 | CTAACACA | 0.169
25 | ATGTTAGA | -0.12
26 | CTATTATA | 0.113
27 | AAGCACTA | -0.0951
28 | CACTAGGA | -0.0866
29 | TATTGGCA | 0.0426
30 | GCTCCTTA | 0.00377
31 | TCGCCCCA | -0.25
32 | AACTACGA | -0.00342
33 | CCAGGATC | 0.0359
34 | ATCACTCG | -0.126
35 | AGCTGCAG | -0.044
36 | GTTTTAGA | 0.147
37 | CCTAAAGG | -0.122
38 | AGCAGGTC | -0.0774
39 | AGACTGCA | -0.24
40 | AACAGGAA | 0.0432
41 | CATCTGTC | -0.214
42 | CCAGTCCA | -0.252
43 | CCCAAATC | -0.0623
44 | GTCGCACA | -0.0371

Row | Sequence | PBM E-score
45 | GCGCCAAA | -0.00708
46 | ACTCGACG | -0.0124
47 | CCTCGGAC | 0.17
48 | GCCTCCGC | -0.149
49 | GCCGTCCC | 0.031
50 | CCGATTAA | 0.256
51 | AATACTTC | 0.0502
52 | CGTAACCC | -0.0638
53 | ACATCGTC | -0.00796
54 | CATTGTCC | -0.00591
55 | CAAATCAC | -0.217
56 | AGATGCCT | -0.0639
57 | AGTAAACG | 0.0151
58 | CGATGAAA | 0.0309
59 | CATATGGG | -0.176
60 | AAGACGGA | 0.181
61 | TATCTGAA | 0.108
62 | CTCGACCC | -0.118
63 | ATAGGAGC | -0.0977
64 | AATTTCGA | -0.0707
65 | GAAGAGAA | 0.0856
66 | GTAGATTA | 0.173

Row | Sequence | PBM E-score
67 | CTAGACAC | -0.00812
68 | ATAGGCTA | -0.0853
69 | CCTAATTC | 0.00904
70 | TGCAGGAA | 0.0285
71 | AAAAACCG | 0.0868
72 | CGGTGCAG | 0.115
73 | GGACCCCA | -0.227
74 | ACCTCTAC | -0.058
75 | CAACTTTC | 0.0846
76 | GAGAGGTA | -0.287
77 | AACAGTTC | 0.0577
78 | CTCTTTGC | -0.0871
79 | GTTAACAA | 0.165
80 | TGGCGCCA | -0.107
81 | ACTGGGTC | -0.271
82 | GGAAAGAA | 0.128
83 | ATGGTATA | -0.0158
84 | CGGGGTCA | -0.107
85 | TGCGCCAA | -0.00426
86 | CCTGGGAC | -0.329
